The results in this text go back to patent publication US5510332A (priority 1994, dated 1996).

For some assays here: Some peptides are written in HELM: one residue between dots, names in brackets for other building blocks, links after the first $. Where no end group is shown, it is not given here.

Series [1] in a line: general procedure: Fmoc solid-phase peptide synthesis; Rink resin; HBTU or DIC, HOBT if necessary. The note with it: whole synthesis, scale 25 nM.
The nature of series [2]: general procedure: Fmoc solid-phase peptide synthesis; Wang resin (C-terminal acids); Rink resin (C-terminal amides); HBTU or DIC, HOBT if necessary. The note with it: whole synthesis, analytical HPLC, scale of the general procedure 25 nM.
Series [3] can be described thus: general procedure: Fmoc solid-phase peptide synthesis; Wang resin; HBTU or DIC, HOBT if necessary. The note with it: whole synthesis, scale 25 nM.

In turn, DPEWLDVPST-NH2 returned an isolated mass in series [1] of 10.9 mg. Moreover, the “final HPLC purity” value in series [2] was over 99% pure.

In series [3], PEPTIDE1{E.W.L.D.V}$$$$V2.0 came in with a crude mass of 12.2 mg and an isolated mass of 4.5 mg. In series [2], the “final HPLC purity” value is over 98% pure.
